This is an account of results in article doi:10.1101/2023.09.28.560017.

No constants are given. Whether binding was seen depends on the method and setting. In cells and extracts the contact can be indirect. Some entries that bind do so weakly or less than the wild type. Where a sequence is shown, tags or fusion partners need not be part of it.

The chains are these.
B1: FLOT2-N-myc (flotillin 2) (protein, UniProt Q14254 1-428)
chain: MGNCHTVGPNEALVVSGGCCGSDYKQYVFGGWAWAWWCISDTQRISLEIMTLQPRCEDVETAEGVALTVTGVAQVKIMTEKELLAVACEQFLGKNVQDIKNVVLQTLEGHLRSILGTLTVEQIYQDRDQFAKLVREVAAPDVGRMGIEILSFTIKDVYDKVDYLSSLGKTQTAVVQRDADIGVAEAERDAGIREAECKKEMLDVKFMADTKIADSKRAFELQKSAFSEEVNIKTAEAQLAYELQGAREQQKIRQEEIEIEVVQRKKQIAVEAQEILRTDKELIATVRRPAEAEAHRIQQIAEGEKVKQVLLAQAEAEKIRKIGEAEAAVIEAMGKAEAERMKLKAEAYQKYGDAAKMALVLEALPQIAAKIAAPLTKVDEIVVLSGDNSKVTSEVNRLLAELPASVHALTGVDLSKIPLIKKATGVQV
B2: FLOT1-N-myc (flotillin 1) (protein, UniProt O75955 1-427)
chain: MFFTCGPNEAMVVSGFCRSPPVMVAGGRVFVLPCIQQIQRISLNTLTLNVKSEKVYTRHGVPISVTGIAQVKIQGQNKEMLAAACQMFLGKTEAEIAHIALETLEGHQRAIMAHMTVEEIYKDRQKFSEQVFKVASSDLVNMGISVVSYTLKDIHDDQDYLHSLGKARTAQVQKDARIGEAEAKRDAGIREAKAKQEKVSAQYLSEIEMAKAQRDYELKKAAYDIEVNTRRAQADLAYQLQVAKTKQQIEEQRVQVQVVERAQQVAVQEQEIARREKELEARVRKPAEAERYKLERLAEAEKSQLIMQAEAEAASVRMRGEAEAFAIGARARAEAEQMAKKAEAFQLYQEAAQLDMLLEKLPQVAEEISGPLTSANKITLVSSGSGTMGAAKVTGEVLDILTRLPESVERLTGVSISQVNHKPLRTA
B3: stomatin-N-myc (protein, UniProt P27105 1-288)
chain: MAEKRHTRDSEAQRLPDSFKDSPSKGLGPCGWILVAFSFLFTVITFPISIWMCIKIIKEYERAIIFRLGRILQGGAKGPGLFFILPCTDSFIKVDMRTISFDIPPQEILTKDSVTISVDGVVYYRVQNATLAVANITNADSATRLLAQTTLRNVLGTKNLSQILSDREEIAHNMQSTLDDATDAWGIKVERVEIKDVKLPVQLQRAMAAEAEASREARAKVIAAEGEMNASRALKEASMVITESPAALQLRYLQTLTTIAAEKNSTIVFPLPIDMLQGIIGAKHSHLG

This assay addresses T1, WT hHV1-GFP (human voltage gated proton channel, GFP-tagged) (human) (UniProt Q96D96).
T1 sequence: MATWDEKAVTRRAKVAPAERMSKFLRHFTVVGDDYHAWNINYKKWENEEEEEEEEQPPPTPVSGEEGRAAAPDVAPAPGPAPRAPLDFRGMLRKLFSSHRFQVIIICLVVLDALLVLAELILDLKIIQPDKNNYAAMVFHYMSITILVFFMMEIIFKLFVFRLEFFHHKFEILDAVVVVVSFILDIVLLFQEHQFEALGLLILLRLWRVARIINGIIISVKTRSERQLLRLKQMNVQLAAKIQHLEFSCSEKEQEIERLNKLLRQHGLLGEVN
Kind of assay: co-IP.
As to B1, the binding entry is “no binding”.
For B2, the binding entry is reported as “no binding”.
As to B3, the binding entry was “binds”.
